The source of these data is patent US4772596A, “Dihydropyridine derivatives, their preparation and their use” (Sankyo Company Limited, priority 1986, dated 1988).

For this assay, the system named is spontaneously hypertensive rats of the SHR strain. The experiment in a line: Antihypertensive activity in conscious spontaneously hypertensive rats (blood pressure and heart rate). The note with it: 3 mg/kg, po. How it is done:
The test animals were spontaneously hypertensive rats of the SHR strain, each aged about 15 weeks. The antihypertensive activities of the test compounds were determined in these rats as follows.
Each animal was anaesthetized with sodium pentobarbital (50 mg/kg, intraperitoneally) and a polyethylene cannula was inserted into the abdominal aorta by the method of Weeks and Jones [J. R. Weeks and J. A. Jones, Proc. Soc. Exptl. […] The other end of the cannula left the animal's body at, and was fixed to, the neck. About 1 week after this surgery, when the animal had completely recovered from surgical stress, the free end of the aortic cannula was connected to a sphygmomanmeter to measure blood pressure and heart rate of the animal directly in the conscious, aparalytic and unrestrained state.
At this time, a test compound suspended in a 0.3% w/v aqueous carboxymethylcellulose solution was administered orally in the dose shown in the following Table 8.
Tmax : the time in hours after administration of the compound under test before the maximum change in blood pressure was recorded;
To 0.5 max : the time in hours after administration of the compound under test which is required for the blood pressure to return to one half of its maximum value;

`COC(=O)C1=C(C)NC(C)=C(C(=O)OC)C1c1ccccc1[N+](=O)[O-]` [nifedipine, reference compound]: the “T0.5 max (time after administration for the blood pressure to return to one half of its maximum value)” value turned out to be 7.0 h and the “Tmax (time after administration before the maximum change in blood pressure)” value worked out at 18 min.
